Test results: PubChem BioAssay AID1347076 (National Center for Advancing Translational Sciences (NCATS), 2019)
About 13,000 (3.2%) of roughly 400,000 compounds were called active. Inconclusive means that the source gave no clear call. Such entries were picked first, then a sample of the others. Calls come from the whole dose curve; as a rule, active = well fitted cell-killing curve with a large enough effect; inconclusive = small, poorly fitted or top-dose-only effect, or effect the other way; inactive = flat fitted curve, though single readings scatter. Potencies beside an inconclusive call are fits to weak or partial responses and may not hold up.

Experiment: qHTS assay for MDR1-selective chemotherapeutics: Primary screen using the drug-selected MDR subline cells KB-V1; note: nearly all actives have a fitted effect of over 60% in size
Conditions: KB-V1 MDR cells viability, CellTiter-Glo, 72 h; activity change, negative = cytotoxicity: at 46.1 µM (top of the series)
Procedure, shortened: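 Cells of the MDR subline KB-V1 are plated, dosed with compound at multiple concentrations, and incubated 72 h at 37 degrees C; CellTiter-Glo is then added and luminescence read after 10 min.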
% is set by controls: 0 for no effect and ±100 for the full control effect; potency is the fitted concentration of half-maximal effect.

Which Potency does the source give for [O-][n+]1c2c(c3c4non(O)c4ccc31)CCCC2 here?
The Potency was “inactive”.

With C=CCOc1c(Cl)cc(CNc2ccc(N(C)C)cc2)cc1OC as the molecule, how does the Potency read?
Its Potency is active: 5.17 µM.

Which Potency does the source give for O=C(c1csc(Nc2ccccc2Cl)n1)N1CCCC1 here?
The Potency was active: 20.6 µM.

Which Potency does the source give for CCOC(=O)c1ccc2[nH]c3c(c2c1)CCCC3NC=O (centres undefined) here?
The Potency was “inactive”.

With Nc1nnnn1/N=C/c1cc(Cl)ccc1O as the molecule, how does the Potency read?
The Potency was inconclusive: 23.1 µM [rising, single point].

Which Potency does the source give for CCOc1ccccc1Nc1sc(C(=O)c2ccccc2)c(N)c1C(=O)NCCc1ccccc1 here?
The Potency was “inactive”.

With Cc1ccc(-c2nnc(-c3cccs3)o2)cc1 as the molecule, how does the Potency read?
Its Potency is inconclusive: 20.6 µM [cytotoxic, single point].

With CCC1C(=NO)C(CC)C(c2ccccc2)NC1c1ccccc1 (centres undefined) as the molecule, how does the Potency read?
The Potency was inconclusive: 18.4 µM [cytotoxic, single point].

For CCOC1=C2CN(S(=O)(=O)c3ccc(C)cc3)C(c3ccccc3)CC2N(S(=O)(=O)c2ccccc2Cl)C(c2ccccc2)C1 (centres undefined), which Potency is on record?
The Potency was “inactive”.

With COCc1[nH][nH]c(=O)c1/C=N/N1CCOCC1 as the molecule, how does the Potency read?
The Potency was inconclusive: 20.6 µM [rising, single point].

For O=C(NCc1ccco1)c1ccccc1-c1ccccc1, which Potency is on record?
The Potency was inconclusive: 18.4 µM [cytotoxic, partial curve, poor fit].

With O=C(CCNC(=O)c1ccc(Cl)cc1)Nc1ccncc1 as the molecule, how does the Potency read?
The Potency was inconclusive: 23.1 µM [cytotoxic, single point].

With COc1ccc(CN(C(=O)c2cc(=O)c3cc(C)cc(C)c3o2)C2CCS(=O)(=O)C2)cc1 (centres undefined) as the molecule, how does the Potency read?
Its Potency is inconclusive: 0.411 µM [cytotoxic, partial curve].

For O=C(CCc1ccc(S(=O)(=O)N2CCOCC2)cc1)Nc1nc(COc2ccccc2)cs1, which Potency is on record?
Its Potency is active: 2.91 µM.

With CCC/C(=N\NC(=O)CNC(=O)c1ccc(Cl)cc1)c1ccccc1 as the molecule, how does the Potency read?
Its Potency is inconclusive: 20.6 µM [cytotoxic, partial curve].

For COc1ccc(-n2c(C)c(C(C)=O)c3cc(O)ccc32)cc1, which Potency is on record?
Its Potency is inconclusive: 29.1 µM [cytotoxic, single point].

For COc1cc(OC)cc(C(=O)Nc2cccc(NC(=O)c3cccs3)c2)c1, which Potency is on record?
The Potency was inconclusive: 20.6 µM [cytotoxic, partial curve, poor fit].

Which Potency does the source give for CN(CC(=O)Nc1ccc(F)c(F)c1F)C(=O)Cc1ccc2c(c1)OCCO2 here?
Its Potency is “inactive”.

Which Potency does the source give for COc1ccc(NS(=O)(=O)/C=C/c2ccccc2)cc1 here?
Its Potency is inconclusive: 29.1 µM [cytotoxic, single point].

With CCOc1ccc(NCc2nnc(SCC(=O)Nc3cc(C)on3)n2-c2ccc(OC)cc2)cc1 as the molecule, how does the Potency read?
Its Potency is inconclusive: 8.2 µM [cytotoxic, partial curve].

For CCOc1ccc(NC(=O)CSc2nc3c(c(=O)[nH]2)CCCC3)cc1, which Potency is on record?
Its Potency is inconclusive: 5.8 µM [rising, full curve, poor fit].

Which Potency does the source give for Cc1cc(C)c(S(=O)(=O)N2CCN(C(=O)c3ccccc3OCc3c(C)noc3C)CC2)c(C)c1 here?
The Potency was active: 7.31 µM.

Which Potency does the source give for CC(=O)Nc1ccc(S(=O)(=O)N(C)CCOCc2ccccc2)cc1 here?
Its Potency is inconclusive: 20.6 µM [cytotoxic, partial curve, poor fit].

For O=C(NCc1ccccc1)c1ccc(/C=N/O)nc1, which Potency is on record?
Its Potency is “inactive”.

With O=C(OCC(=O)N1CCc2ccccc2C1)c1ccc(OC(F)F)cc1 as the molecule, how does the Potency read?
Its Potency is “inactive”.

For Cc1ccc(OCC(=O)Sc2ccc(C)cc2)cc1, which Potency is on record?
The Potency was inconclusive: 18.4 µM [rising, single point].

With COc1ccc(N2CC(C)(C)[C@H](CC(=O)Nc3ccccc3)C2=O)cc1 as the molecule, how does the Potency read?
The Potency was “inactive”.

Which Potency does the source give for CCOc1cccc(CN2CCC(n3nccc3NC(=O)C3CCCC3)CC2)c1 here?
Its Potency is active: 16.4 µM.

With COc1ccc(/C=N/Nc2cn[nH]c(=O)c2Cl)cc1 as the molecule, how does the Potency read?
Its Potency is inconclusive: 3.66 µM [cytotoxic, full curve, poor fit].

Which Potency does the source give for O=C1NC(=Nc2ccccc2)S/C1=C\c1cccn1-c1ccccc1 here?
The Potency was active: 4.61 µM.

Which Potency does the source give for Cc1cc(/C=C2/C(=O)N(C)C(=S)N2C)ccc1N1CCCC1 here?
The Potency was inconclusive: 29.1 µM [cytotoxic, single point].

With COc1ccccc1N1CCN(C(=O)c2ccc(CSc3ccccc3)cc2)CC1 as the molecule, how does the Potency read?
Its Potency is inconclusive: 8.2 µM [cytotoxic, partial curve].

With CN(Cc1ccccc1)C(=O)C1CCCN(Cc2ccc(Cl)cc2)C1 (centres undefined) as the molecule, how does the Potency read?
The Potency was inconclusive: 6.51 µM [cytotoxic, partial curve, poor fit].

For CC(O)[C@H]1CNC(=O)C(=O)N1CC(C)(C)C (some centres undefined), which Potency is on record?
The Potency was inconclusive: 18.4 µM [rising, single point].

Which Potency does the source give for CC(C)Oc1ccc(C(=O)N(CN2CCCC2=O)c2ccc(F)cc2)cc1 here?
The Potency was inconclusive: 8.2 µM [cytotoxic, partial curve, poor fit].

For CN1CCN(C(=O)CSc2nc(-c3cccs3)cc(-c3cccs3)c2C#N)CC1, which Potency is on record?
The Potency was inconclusive: 29.1 µM [cytotoxic, single point].

Which Potency does the source give for O=S(=O)(/N=C(\Sc1ccccc1)c1ccccc1)c1ccc(Cl)cc1 here?
The Potency was “inactive”.

For O=C(COC(=O)Cc1ccc(Cl)cc1)Nc1c(F)cccc1F, which Potency is on record?
The Potency was “inactive”.

Which Potency does the source give for O=C1CCC(=O)N1c1ccccc1 here?
Its Potency is “inactive”.

For O=C(Cc1ccsc1)N1CCN(S(=O)(=O)c2cc(C(F)(F)F)cc(C(F)(F)F)c2)CC1, which Potency is on record?
Its Potency is inconclusive: 2.59 µM [cytotoxic, partial curve, poor fit].

For C/C(=N\NC(=O)c1cccc(F)c1)c1ccc(Br)s1, which Potency is on record?
Its Potency is inconclusive: 2.59 µM [cytotoxic, full curve].

Which Potency does the source give for O=c1[nH]c2ccccc2c2nc3ccccn3c12 here?
Its Potency is inconclusive: 20.6 µM [cytotoxic, single point].

For Cc1ccccc1NC(=S)Nc1cccc2cnccc12, which Potency is on record?
Its Potency is inconclusive: 25.9 µM [cytotoxic, single point].

For CCCN(C(=O)c1cn(C)c(=O)c2ccccc12)c1ccccc1C, which Potency is on record?
The Potency was “inactive”.

Which Potency does the source give for CC(=O)Nc1ccc(NC(=O)CSc2ccc3nnc(-c4ccccn4)n3n2)cc1 here?
The Potency was “inactive”.

With CCCC[C@H]1COCCS(=O)(=O)N1Cc1ccc(Br)cc1 as the molecule, how does the Potency read?
The Potency was inconclusive: 18.4 µM [cytotoxic, partial curve, poor fit].

Which Potency does the source give for O=C(CC12CC3CC(CC(C3)C1)C2)NCc1ccncc1 here?
Its Potency is inconclusive: 20.6 µM [cytotoxic, partial curve].

Which Potency does the source give for CC(Sc1ccccc1)C(=O)N1CCN(S(=O)(=O)c2ccccc2C(F)(F)F)CC1 (centres undefined) here?
Its Potency is inconclusive: 8.2 µM [cytotoxic, partial curve].

For CCOc1ccccc1CN1CCc2nc(N3CCN(c4ccccc4F)CC3)ncc2C1, which Potency is on record?
The Potency was inconclusive: 4.61 µM [cytotoxic, full curve].

Which Potency does the source give for CC1=CC2=NC(=O)/C(=C\c3cccn3CCOc3cc(C)ccc3C)C(=N)N2O1 here?
The Potency was inconclusive: 29.1 µM [cytotoxic, single point].

For CC(=O)c1c(C)oc2c1C(=O)c1ccccc1C2=O, which Potency is on record?
The Potency was active: 6.51 µM.

For O=C(CN1/C(=C(/O)c2ccccc2)C(=O)c2ccccc2S1(=O)=O)c1ccccc1, which Potency is on record?
Its Potency is active: 1.46 µM.

For Cc1nc2cc(NC(=O)NCc3ccco3)ccc2n1C, which Potency is on record?
Its Potency is “inactive”.

Which Potency does the source give for CCc1nc(SCCO)c2oc3ccccc3c2n1 here?
The Potency was inconclusive: 29.1 µM [cytotoxic, single point].

Which activity change, negative = cytotoxicity does the source give for O=C1CN(C(=O)COC(=O)c2c(F)cccc2Cl)c2ccccc2N1 here?
The activity change, negative = cytotoxicity was inconclusive: -22.3%.

Which Potency does the source give for NC(=S)N/N=C/c1ccc(-c2ccccc2)o1 here?
The Potency was inconclusive: 25.9 µM [cytotoxic, single point].

For S=C(NCCCN1CCOCC1)Nc1ccc(Cl)c(Cl)c1, which Potency is on record?
The Potency was inconclusive: 10.3 µM [cytotoxic, partial curve, poor fit].

For COC(=O)c1ccc(-c2csc(NC(=O)c3c(C)noc3C)n2)cc1, which Potency is on record?
The Potency was “inactive”.

For CCOc1ccc(NC(=O)COC(=O)c2ccc3c(c2)OCO3)cc1, which Potency is on record?
Its Potency is “inactive”.

Which Potency does the source give for CCOC(=O)c1ccc(C(=O)OCC)nc1 here?
Its Potency is inconclusive: 23.1 µM [rising, partial curve, poor fit].

For COc1ccc(-c2c(C(C)=O)c(C)n(C)c2C)cc1, which Potency is on record?
The Potency was inconclusive: 23.1 µM [cytotoxic, single point].

With COc1cccc(C(=O)CC2(O)C(=O)Nc3ccc(Cl)cc32)c1 (centres undefined) as the molecule, how does the Potency read?
The Potency was inconclusive: 32.6 µM [rising, single point].

Which Potency does the source give for COc1ccc(NS(=O)(=O)c2cn(C)cn2)cc1 here?
Its Potency is inconclusive: 0.184 µM [rising, full curve].

With O=c1nccc(NCc2ccco2)[nH]1 as the molecule, how does the Potency read?
Its Potency is “inactive”.

Which Potency does the source give for CC(C)(C)c1ccc(CC(=O)N2CCC2(C)C(=O)NS(=O)(=O)c2cccc(F)c2)cc1 (centres undefined) here?
The Potency was “inactive”.

With O=C(N/N=C/c1ccc2ncccc2c1)c1ccco1 as the molecule, how does the Potency read?
Its Potency is inconclusive: 20.6 µM [cytotoxic, single point].

With Brc1ccccc1Cn1cnc2ccccc21 as the molecule, how does the Potency read?
Its Potency is “inactive”.

For CCN1CCN(CCCNC(=O)c2cc3cc4ccc(OC)cc4nc3o2)CC1, which Potency is on record?
The Potency was inconclusive: 14.6 µM [cytotoxic, single point].

For CC(C)CCN1CC(O)=C(c2nc3ccccc3[nH]2)C1=N, which Potency is on record?
Its Potency is active: 10.3 µM.

With O=C(Cc1ccc(NC2=NC3CS(=O)(=O)CC3S2)cc1)NCc1ccc(Cl)cc1 (centres undefined) as the molecule, how does the Potency read?
Its Potency is “inactive”.

For COCCCn1cc(CN2CC(N(C)C)CS2(=O)=O)nn1 (centres undefined), which Potency is on record?
The Potency was “inactive”.

With Cc1coc2c(O)cc3c(c12)OC1(N2CCCCC2)C(=O)NCCCC31 (centres undefined) as the molecule, how does the Potency read?
Its Potency is inconclusive: 16.4 µM [cytotoxic, partial curve, poor fit].

Which Potency does the source give for CCC(C)(C)NC(=O)C(c1ccc(F)cc1)N(Cc1ccc(OC)cc1)C(=O)c1cnccn1 (centres undefined) here?
The Potency was inconclusive: 29.1 µM [cytotoxic, single point].

For CCn1c(Cc2ccc(OC)cc2)nc2ccccc21, which Potency is on record?
The Potency was inconclusive: 23.1 µM [cytotoxic, single point].
